From US11220671B2, “Methods for the maturation of cardiomyocytes on amniotic fluid cell-derived ECM, cellular constructs, and uses for cardiotoxicity and proarrhythmic screening of drug compounds” (STEMBIOSYS, INC., priority 2019, dated 2022)

Assay: Composition of amniotic fluid cell-derived ECM by mass spectrometry (total spectra count)
[1] = protein component found by mass spectrometry in amniotic fluid cell-derived ECM Matrix A (Example 1)
[2] = protein component found by mass spectrometry in amniotic fluid cell-derived ECM Matrix B (Example 1)
[3] = protein component found by mass spectrometry in amniotic fluid cell-derived ECM Matrix C (Example 1)
[4] = protein component found by mass spectrometry in amniotic fluid cell-derived ECM Matrix D (Example 1)
[5] = amniotic fluid cell-derived ECM Matrix A, mass spectrometry, label = protein component
[6] = amniotic fluid cell-derived ECM Matrix B, mass spectrometry, label = protein component
[7] = amniotic fluid cell-derived ECM Matrix C, mass spectrometry, label = protein component
[8] = amniotic fluid cell-derived ECM Matrix D, mass spectrometry, label = protein component

Row | Substance | Total Spectra Count Matrix A [1] | Total Spectra Count Matrix B [2] | Total Spectra Count Matrix C [3] | Total Spectra Count Matrix D [4] | Total Spectra Count Matrix A [5] | Total Spectra Count Matrix B [6] | Total Spectra Count Matrix C [7] | Total Spectra Count Matrix D [8]
1 | Integrin beta-1 | 19 | 16 | 4 | 18 | – | – | – | –
2 | Glycylpeptide N-tetradecanoyltransferase 2 | – | – | – | – | 0 | 2 | 0 | 0
3 | Stress-70 protein, mitochondrial | 17 | 33 | 0 | 10 | – | – | – | –
4 | ATP-dependent RNA helicase A | 14 | 25 | 1 | 9 | – | – | – | –
5 | Latent-transforming growth factor beta-binding protein 2 | – | – | – | – | 0 | 23 | 0 | 0
